Literature values, collected in patent publication US9207243B2, “Use of GLUT4 inhibitors and DNA damaging agents for treating multiple myeloma” (Northwestern University, priority 2011, dated 2015).
At least one structure is not confirmed: it was looked up by name or label, or the drawing left a doubt.

Conditions: cited from earlier work

## O=C(O)C(=O)CBr [3-bromopyruvate]
  stability in solution: low stability
